No constants are given. Whether binding was seen depends on the method and setting. For part of these data: A result given as binding can be weak or reduced; the word gives no strength. Where a sequence is shown, tags or fusion partners need not be part of it.
What was measured:
Assay in all cases: two-hybrid; GAL4-based system (Matchmaker Gold, Clontech), yeast strain Y2HGold; growth on SD/-Trp-Leu-His-Ade plates with X-α-gal and Aureobasidin A
[1] = target: SsSSVP1^∆SP single-point mutant C79A, yeast two-hybrid fusion (Sclerotinia sclerotiorum)
[2] = target: SsSSVP1^∆SP single-point mutant C81A, yeast two-hybrid fusion (Sclerotinia sclerotiorum)
[3] = target: SsSSVP1^∆SP-C44A, yeast two-hybrid fusion (Sclerotinia sclerotiorum)
[4] = target: SsSSVP1^∆SP single-point mutant C54A, yeast two-hybrid fusion (Sclerotinia sclerotiorum)
[5] = target: SsSSVP1^∆SP single-point mutant C117A, yeast two-hybrid fusion (Sclerotinia sclerotiorum)
[6] = target: SsSSVP1^∆SP-C38A-C44A (double-point mutant), yeast two-hybrid fusion (Sclerotinia sclerotiorum)
[7] = target: SsSSVP1^∆SP single-point mutant C92A, yeast two-hybrid fusion (Sclerotinia sclerotiorum)
[8] = target: SsSSVP1^∆SP single-point mutant C95A, yeast two-hybrid fusion (Sclerotinia sclerotiorum)
[9] = target: SsSSVP1^∆SP-C38A, yeast two-hybrid fusion (Sclerotinia sclerotiorum)

B1: QCR8 (AT3G10860), subunit 8 of cytochrome b-c1 complex, yeast two-hybrid fusion (protein, UniProt Q9SG91 1-72)
chain: MGKQPVKLKAVVYALSPFQQKIMTGLWKDLPEKIHHKVSENWISATLLVTPVVGTYWYAQYFKEQEKLEHRF
Which results are given for B1?
binding [1]: binds; binding [2]: binds; binding [3]: binds; binding [4]: binds; binding [5]: binds; binding [6]: no binding; binding [7]: binds; binding [8]: binds; binding [9]: binds

— PMC4735494
